{"source": "PubChem BioAssay AID248", "about": "(DTP/NCI, 2004)", "system": "L1210 leukemia ip in BDF1 mice, survival T/C", "test": "NCI In Vivo Anticancer Drug Screen. Data for tumor model L1210 Leukemia (intraperitoneal) in B6D2F1 (BDF1) mice", "settings": "T/C endpoint: mean survival time, higher T/C = longer survival", "note": "The list does not hold the whole screen: it gathers some chemical classes. Other doses and runs of a compound may be missing. T/C is the treated group as % of the vehicle group. For survival time, the PubChem record calls one and a half times the control and up active, and a quarter to a half above the control has no call in these data; cut-offs in other NCI protocols can differ. Some T/C values are marked as having no survivor count here; that says nothing about deaths at the dose. Schedule codes are those of the source, read here as Q, the interval in days (D) or hours (H), X, the number of doses. Some entries were tested several times; the results are listed from low to high. Some schedule codes hold Z or #, which are not explained here."}
{"molecule": "COC(=O)CCc1ccc(CN(CCCl)CCCl)cc1", "values": [{"measurement": "T/C", "setting": "dose: 0.27 mg/kg/injection, schedule: Q01DX Z (ip), vehicle: methylcellulose (MC)", "result": "114 % of control [survivor count not shown]"}, {"measurement": "T/C", "setting": "dose: 0.4 mg/kg/injection, schedule: Q01DX Z (ip), vehicle: carboxymethylcellulose (CMC)", "result": "100 % of control [survivor count not shown]"}, {"measurement": "T/C", "setting": "dose: 0.4 mg/kg/injection, schedule: Q01DX Z (ip), vehicle: methylcellulose (MC)", "result": "125 % of control [survivor count not shown]"}, {"measurement": "T/C", "setting": "dose: 0.4 mg/kg/injection, schedule: Q01DX Z (ip), vehicle: saline", "result": "99 % of control [survivor count not shown]"}, {"measurement": "T/C", "setting": "dose: 0.6 mg/kg/injection, schedule: Q01DX Z (ip), vehicle: methylcellulose (MC)", "result": "128 [survivor count not shown] and 130 % of control [survivor count not shown]"}, {"measurement": "T/C", "setting": "dose: 0.75 mg/kg/injection, schedule: Q01DX009 (ip), vehicle: saline", "result": "101 % of control [survivor count not shown]"}, {"measurement": "T/C", "setting": "dose: 1.0 mg/kg/injection, schedule: Q01DX Z (ip), vehicle: carboxymethylcellulose (CMC)", "result": "103 % of control [survivor count not shown]"}, {"measurement": "T/C", "setting": "dose: 1.0 mg/kg/injection, schedule: Q01DX Z (ip), vehicle: methylcellulose (MC)", "result": "135 [survivor count not shown] and 144 % of control [survivor count not shown]"}, {"measurement": "T/C", "setting": "dose: 1.0 mg/kg/injection, schedule: Q01DX Z (ip), vehicle: saline", "result": "100 [survivor count not shown], 109 [survivor count not shown], 113 [survivor count not shown], 129 % of control [survivor count not shown]"}, {"measurement": "T/C", "setting": "dose: 1.5 mg/kg/injection, schedule: Q01DX009 (ip), vehicle: saline", "result": "101 % of control [survivor count not shown]"}, {"measurement": "T/C", "setting": "dose: 1.56 mg/kg/injection, schedule: Q01DX009 (ip), vehicle: saline", "result": "123 % of control [survivor count not shown]"}, {"measurement": "T/C", "setting": "dose: 1.56 mg/kg/injection, schedule: Q04DX003 (ip), vehicle: saline", "result": "110 % of control [survivor count not shown]"}, {"measurement": "T/C", "setting": "dose: 2.0 mg/kg/injection, schedule: Q01DX Z (ip), vehicle: carboxymethylcellulose (CMC)", "result": "113 % of control [survivor count not shown]"}, {"measurement": "T/C", "setting": "dose: 2.0 mg/kg/injection, schedule: Q01DX Z (ip), vehicle: methylcellulose (MC)", "result": "139 [survivor count not shown] and 194 % of control [survivor count not shown]"}, {"measurement": "T/C", "setting": "dose: 2.0 mg/kg/injection, schedule: Q01DX Z (ip), vehicle: saline", "result": "107 [survivor count not shown], 121 [survivor count not shown], 123 % of control [survivor count not shown]"}, {"measurement": "T/C", "setting": "dose: 3.0 mg/kg/injection, schedule: Q01DX009 (ip), vehicle: saline", "result": "101 % of control [survivor count not shown]"}, {"measurement": "T/C", "setting": "dose: 3.0 mg/kg/injection, schedule: Q01DX Z (ip), vehicle: carboxymethylcellulose (CMC)", "result": "113 % of control [survivor count not shown]"}, {"measurement": "T/C", "setting": "dose: 3.0 mg/kg/injection, schedule: Q01DX Z (ip), vehicle: methylcellulose (MC)", "result": "145 [survivor count not shown] and 155 % of control [survivor count not shown]"}, {"measurement": "T/C", "setting": "dose: 3.0 mg/kg/injection, schedule: Q01DX Z (ip), vehicle: saline", "result": "102 [survivor count not shown], 113 [survivor count not shown], 126 % of control [survivor count not shown]"}, {"measurement": "T/C", "setting": "dose: 3.12 mg/kg/injection, schedule: Q01DX009 (ip), vehicle: saline", "result": "118 % of control [survivor count not shown]"}, {"measurement": "T/C", "setting": "dose: 3.12 mg/kg/injection, schedule: Q04DX003 (ip), vehicle: saline", "result": "114 % of control [survivor count not shown]"}, {"measurement": "T/C", "setting": "dose: 4.0 mg/kg/injection, schedule: Q01DX Z (ip), vehicle: carboxymethylcellulose (CMC)", "result": "119 [survivor count not shown] and 124 % of control [survivor count not shown]"}, {"measurement": "T/C", "setting": "dose: 4.0 mg/kg/injection, schedule: Q01DX Z (ip), vehicle: saline", "result": "140 % of control [survivor count not shown]"}, {"measurement": "T/C", "setting": "dose: 4.5 mg/kg/injection, schedule: Q01DX Z (ip), vehicle: saline", "result": "123 % of control [survivor count not shown]"}, {"measurement": "T/C", "setting": "dose: 6.0 mg/kg/injection, schedule: Q01DX Z (ip), vehicle: carboxymethylcellulose (CMC)", "result": "121 % of control [survivor count not shown]"}, {"measurement": "T/C", "setting": "dose: 6.2 mg/kg/injection, schedule: Q01DX001 (ip), vehicle: carboxymethylcellulose (CMC)", "result": "111 % of control [survivor count not shown]"}, {"measurement": "T/C", "setting": "dose: 6.25 mg/kg/injection, schedule: Q04DX003 (ip), vehicle: saline", "result": "123 % of control [survivor count not shown]"}, {"measurement": "T/C", "setting": "dose: 9.0 mg/kg/injection, schedule: Q01DX Z (ip), vehicle: carboxymethylcellulose (CMC)", "result": "124 % of control [survivor count not shown]"}]}
{"molecule": "O=C(O)CCCCc1ccc(N(CCCl)CCCl)cc1", "values": [{"measurement": "T/C", "setting": "dose: 25.0 mg/kg/injection, schedule: Q01DX015 (ip), vehicle: carboxymethylcellulose (CMC)", "result": "121 % of control [survivor count not shown]"}, {"measurement": "T/C", "setting": "dose: 25.0 mg/kg/injection, schedule: Q04DX003 (ip), vehicle: saline with Tween-80", "result": "102 % of control [survivor count not shown]"}, {"measurement": "T/C", "setting": "dose: 50.0 mg/kg/injection, schedule: Q01DX015 (ip), vehicle: carboxymethylcellulose (CMC)", "result": "122 % of control [survivor count not shown]"}, {"measurement": "T/C", "setting": "dose: 50.0 mg/kg/injection, schedule: Q04DX003 (ip), vehicle: saline with Tween-80", "result": "109 % of control [survivor count not shown]"}]}
{"molecule": "O=c1c2ccccc2ncn1CCN(CCCl)CCCl", "values": [{"measurement": "T/C", "setting": "dose: 50.0 mg/kg/injection, schedule: Q04DX002 (ip), vehicle: saline", "result": "125 % of control [survivor count not shown]"}, {"measurement": "T/C", "setting": "dose: 100.0 mg/kg/injection, schedule: Q04DX002 (ip), vehicle: saline", "result": "110 [survivor count not shown] and 159 % of control [survivor count not shown]"}, {"measurement": "T/C", "setting": "dose: 200.0 mg/kg/injection, schedule: Q04DX002 (ip), vehicle: saline", "result": "134 [survivor count not shown] and 141 % of control [survivor count not shown]"}, {"measurement": "T/C", "setting": "dose: 400.0 mg/kg/injection, schedule: Q04DX002 (ip), vehicle: saline", "result": "109 % of control [survivor count not shown]"}]}
{"molecule": "O=C(O)COc1cccc(N(CCCl)CCCl)c1", "values": [{"measurement": "T/C", "setting": "dose: 19.3 mg/kg/injection, schedule: Q01DX Z (ip), vehicle: methylcellulose (MC)", "result": "119 % of control [survivor count not shown]"}, {"measurement": "T/C", "setting": "dose: 20.0 mg/kg/injection, schedule: Q01DX Z (ip), vehicle: methylcellulose (MC)", "result": "138 % of control [survivor count not shown]"}, {"measurement": "T/C", "setting": "dose: 29.0 mg/kg/injection, schedule: Q01DX Z (ip), vehicle: methylcellulose (MC)", "result": "104 % of control [survivor count not shown]"}, {"measurement": "T/C", "setting": "dose: 30.0 mg/kg/injection, schedule: Q01DX Z (ip), vehicle: methylcellulose (MC)", "result": "121 % of control [survivor count not shown]"}, {"measurement": "T/C", "setting": "dose: 43.0 mg/kg/injection, schedule: Q01DX Z (ip), vehicle: methylcellulose (MC)", "result": "114 % of control [survivor count not shown]"}, {"measurement": "T/C", "setting": "dose: 44.0 mg/kg/injection, schedule: Q01DX Z (ip), vehicle: methylcellulose (MC)", "result": "130 % of control [survivor count not shown]"}, {"measurement": "T/C", "setting": "dose: 45.0 mg/kg/injection, schedule: Q01DX Z (ip), vehicle: methylcellulose (MC)", "result": "126 % of control [survivor count not shown]"}, {"measurement": "T/C", "setting": "dose: 65.0 mg/kg/injection, schedule: Q01DX Z (ip), vehicle: methylcellulose (MC)", "result": "97 % of control [survivor count not shown]"}, {"measurement": "T/C", "setting": "dose: 66.0 mg/kg/injection, schedule: Q01DX Z (ip), vehicle: methylcellulose (MC)", "result": "140 % of control [survivor count not shown]"}, {"measurement": "T/C", "setting": "dose: 67.0 mg/kg/injection, schedule: Q01DX Z (ip), vehicle: methylcellulose (MC)", "result": "128 % of control [survivor count not shown]"}, {"measurement": "T/C", "setting": "dose: 100.0 mg/kg/injection, schedule: Q01DX Z (ip), vehicle: methylcellulose (MC)", "result": "130 % of control [survivor count not shown]"}]}
{"molecule": "CCCCOc1ccc(N(CCCl)CCCl)cc1", "values": [{"measurement": "T/C", "setting": "dose: 25.0 mg/kg/injection, schedule: Q01DX Z (ip), vehicle: carboxymethylcellulose (CMC)", "result": "104 % of control [survivor count not shown]"}, {"measurement": "T/C", "setting": "dose: 38.0 mg/kg/injection, schedule: Q01DX Z (ip), vehicle: carboxymethylcellulose (CMC)", "result": "121 % of control [survivor count not shown]"}, {"measurement": "T/C", "setting": "dose: 56.0 mg/kg/injection, schedule: Q01DX Z (ip), vehicle: carboxymethylcellulose (CMC)", "result": "109 % of control [survivor count not shown]"}, {"measurement": "T/C", "setting": "dose: 56.0 mg/kg/injection, schedule: Q01DX Z (ip), vehicle: methylcellulose (MC)", "result": "131 % of control [survivor count not shown]"}, {"measurement": "T/C", "setting": "dose: 100.0 mg/kg/injection, schedule: Q01DX Z (ip), vehicle: carboxymethylcellulose (CMC)", "result": "96 % of control [survivor count not shown]"}, {"measurement": "T/C", "setting": "dose: 175.0 mg/kg/injection, schedule: Q01DX Z (ip), vehicle: carboxymethylcellulose (CMC)", "result": "106 % of control [survivor count not shown]"}, {"measurement": "T/C", "setting": "dose: 250.0 mg/kg/injection, schedule: Q01DX Z (ip), vehicle: carboxymethylcellulose (CMC)", "result": "102 % of control [survivor count not shown]"}]}
